{"source": "patent US6626844B1", "about": "“Method and composition for inhibition of nitric oxide production in the oral cavity” (Aerocrine AB, priority 1998, dated 2003)", "key": {"[1]": {"test_system": "NO in exhaled air", "test": "Mouthwashes and NO in exhaled air", "format": "in vivo, humans", "from_the_text": "Ten healthy non-smoking subjects, age 23-43, were included in the study. The NO measurements were made with a chemiluminescense technique according to the recommendations recently described in the ERS Task Force Report (Kharitonov et al., 1997). The values of NO concentration were then registered in a computer software program together with the values of flow and pressure, measured with a pneunotachygraf, and calculations of these parameters were presented on a screen.\nThe following describes briefly the “single-breath” method for orally exhaled air. Compressed NO free air was continuously flowing into a non-diffusing gas collection bag, 100 l capacity (Hans Rudolph Inc.), at a rate of 2-3 l/min. The bag was connected via a tube to a Y-piece with a one-way valve, which in turn was adapted to a mouthpiece. Before the measurements the subjects inhaled NO free air through the mouthpiece and were asked to hold their breath for 10 s while they put their tongue into the mouthpiece's opening, in order to prevent NO from diffusing out. Then the subjects exhaled through the mouthpiece at a flow rate of about 0.15 l/s against a resistance of 50 cmH2O/l/s (Hans Rudolph Inc.), giving rise to an oral pressure of 8-10 cmH2O, for a period of 20 s. The exhaled air went out through the other one-way valve in the Y-piece leading on to a linear pneumotachymeter (Hans Rudolph Inc.), where the values of flow and pressure were registered and transformed into digital signals recorded by a computer software program (Medical Breath Analyser™ from Aerocrine AB, Sweden). […] The detected NO levels were passed on to the computer and integrated with the figures for flow and pressure for calculation of NO release rate (pmol/s) and NO amount (pmol). NO release was calculated by the formula: NO-conc×Q=pmol/s×l/s=pmol/s. […] In addition to the curves for flow and pressure two curves for NO concentration and NO release were plotted on the screen and calculated mean values were presented for the last 40% of the breath, representing the plateau phase. […]"}, "[2]": {"test": "Nitrate and nitrite concentration in saliva after nitrate loading", "format": "in vivo, humans"}}, "data": [{"smiles": "O=C1O[C@H]([C@@H](O)CO)C(O)=C1O", "note": "[ascorbic acid]", "values": [{"measurement": "duration of effect on peak concentrations", "setting": "[1]; after mouthwash", "value": "up to 180 s"}, {"measurement": "time after which plateau levels were back to normal", "setting": "[1]; after mouthwash", "value": 120, "unit": "s"}]}, {"smiles": "O=N[O-].[K+]", "note": "[nitrite solution, potassium nitrite]", "values": [{"measurement": "duration of elevated NO, plateau and peak", "setting": "[1]; after 10 mM nitrite mouthwash", "value": "> 240", "unit": "s"}]}, {"smiles": "O=[N+]([O-])[O-].[K+]", "note": "[potassium nitrate]", "values": [{"measurement": "nitrate concentration in saliva", "setting": "[2]; 60 min after ingestion of 400 mg potassium nitrate, baseline 0.40±0.21, n=7", "value": "4.00 ± 0.69", "unit": "mM"}, {"measurement": "increase of nitrate concentration in saliva", "setting": "[2]; 60 min after nitrate ingestion", "value": 10, "unit": "fold"}, {"measurement": "nitrate concentration in saliva", "setting": "[2]; 120 min after nitrate ingestion", "value": "2.92 ± 0.48", "unit": "mM"}, {"measurement": "nitrite concentration in saliva", "setting": "[2]; 120 min after nitrate load (peak), baseline 0.37±0.09", "value": "1.56 ± 0.44", "unit": "mM"}]}]}
